Experimental data: PubChem BioAssay AID1259424 (University of Nebraska Medical Center, 2018)

Purpose: 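Rank knockdowns across the genome by resemblance to the KSR1 depletion profile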 (primary screen)
System: human HCT116 colon cancer cells
Reagents: siRNA pool against human genes, 50 nM
Measured: 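Six signature mRNAs by branched-DNA multiplex assay, scaled to two housekeeping genes and non-targeting median, log2; matched to mean KSR1 knockdown profile by Pearson correlation and euclidean distance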
Reading the numbers: mean correlation with KSR1 profile: higher = expression change more like KSR1 knockdown; mean distance from KSR1 profile: higher = expression change less like KSR1 knockdown
This is a random part of about 14,000 reagents. 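Higher correlation or smaller distance means closer resemblance to KSR1 loss; control wells, including KSR1 knockdowns, recur on many plates.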 Further read-outs or replicates are left out here. Not stated in the record: the time to read-out.

With ACSL1, what was measured?
mean correlation with KSR1 profile: 0.131; mean distance from KSR1 profile: 2.49

With ZNF35, what was measured?
mean correlation with KSR1 profile: -0.14; mean distance from KSR1 profile: 2.38

What did the screen give for FOCAD?
mean correlation with KSR1 profile: -0.723; mean distance from KSR1 profile: 1.96

For GOLGA3, how do the results read?
mean correlation with KSR1 profile: -0.242; mean distance from KSR1 profile: 1.69

Which result is listed for ISG15?
mean correlation with KSR1 profile: -0.256; mean distance from KSR1 profile: 1.61

Which result is listed for ZNF512?
mean correlation with KSR1 profile: -0.0186; mean distance from KSR1 profile: 1.83

What did the screen give for MINDY4?
mean correlation with KSR1 profile: 0.293; mean distance from KSR1 profile: 2.64

How did the screen score DENND1A?
mean correlation with KSR1 profile: 0.00147; mean distance from KSR1 profile: 2.05

What is on record for LDHA?
mean correlation with KSR1 profile: 0.481; mean distance from KSR1 profile: 3.07

How did the screen score CYP4F12?
mean correlation with KSR1 profile: -0.167; mean distance from KSR1 profile: 3.48

What did the screen give for RPS6?
mean correlation with KSR1 profile: 0.425; mean distance from KSR1 profile: 2.15

Which result is listed for PRMT2?
mean correlation with KSR1 profile: -0.545; mean distance from KSR1 profile: 2.25

Laid out differently: entries from further up.
| target gene | mean correlation with KSR1 profile | mean distance from KSR1 profile |
| --- | --- | --- |
| ACSL1 | 0.131 | 2.49 |
| ZNF35 | -0.14 | 2.38 |
